No constants are given. Whether binding was seen depends on the method and setting. Some entries that bind do so weakly or less than the wild type.

For the experiment, the target named is T1, Cse2 subunit of Cascade (Escherichia coli K12) (UniProt P76632).
T1 sequence: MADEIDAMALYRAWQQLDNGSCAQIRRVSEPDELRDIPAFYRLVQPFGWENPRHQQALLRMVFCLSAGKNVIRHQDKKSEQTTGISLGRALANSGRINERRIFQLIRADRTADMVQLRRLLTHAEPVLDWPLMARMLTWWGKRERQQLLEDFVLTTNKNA
Nature of the experiment: co-purification of the complex, SDS-PAGE; Cascade co-expressed in E. coli BL21 (DE3) with g8 crRNA (WT, G-1T, C-2A or C-3G), purified as in ref. 29; 12% SDS-PAGE, Coomassie Blue.

B1: Cse1 subunit of Cascade (protein, UniProt Q46901 1-502)
chain: MNLLIDNWIPVRPRNGGKVQIINLQSLYCSRDQWRLSLPRDDMELAALALLVCIGQIIAPAKDDVEFRHRIMNPLTEDEFQQLIAPWIDMFYLNHAEHPFMQTKGVKANDVTPMEKLLAGVSGATNCAFVNQPGQGEALCGGCTAIALFNQANQAPGFGGGFKSGLRGGTPVTTFVRGIDLRSTVLLNVLTLPRLQKQFPNESHTENQPTWIKPIKSNESIPASSIGFVRGLFWQPAHIELCDPIGIGKCSCCGQESNLRYTGFLKEKFTFTVNGLWPHPHSPCLVTVKKGEVEEKFLAFTTSAPSWTQISRVVVDKIIQNENGNRVAAVVNQFRNIAPQSPLELIMGGYRNNQASILERRHDVLMFNQGWQQYGNVINEIVTVGLGYKTALRKALYTFAEGFKNKDFKGAGVSVHETAERHFYRQSELLIPDVLANVNFSQADEVIADLRDKLHQLCEMLFNQSVAPYAHHPKLISTLALARATLYKHLRELKPQGGPSNG
For the molecule B1, the binding entry is on record as “binds”.

The values are drawn from PMC3764190, “Type I-E CRISPR-Cas Systems Discriminate Target from Non-Target DNA through Base Pairing-Independent PAM Recognition”.
